Laboratory results taken from patent US20080280308A1.
No constants are given. Whether binding was seen depends on the method and setting. Some binding calls cover weakened binding; strength is not graded here.

Protein sequences, listed by entry. Tags and fused reporters are not part of them.
UniProt P02699: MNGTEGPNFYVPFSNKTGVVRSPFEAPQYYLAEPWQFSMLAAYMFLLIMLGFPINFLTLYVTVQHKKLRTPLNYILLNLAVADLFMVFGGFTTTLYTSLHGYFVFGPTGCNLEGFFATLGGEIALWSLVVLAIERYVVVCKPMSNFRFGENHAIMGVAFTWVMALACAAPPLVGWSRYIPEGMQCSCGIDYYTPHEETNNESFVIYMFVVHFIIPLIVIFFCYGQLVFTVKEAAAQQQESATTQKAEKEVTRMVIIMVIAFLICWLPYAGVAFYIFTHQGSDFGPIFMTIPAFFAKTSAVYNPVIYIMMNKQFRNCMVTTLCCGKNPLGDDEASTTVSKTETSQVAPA

T1: human thrombin receptor (PAR1) (human) (UniProt P25116)
T1 sequence (looked up): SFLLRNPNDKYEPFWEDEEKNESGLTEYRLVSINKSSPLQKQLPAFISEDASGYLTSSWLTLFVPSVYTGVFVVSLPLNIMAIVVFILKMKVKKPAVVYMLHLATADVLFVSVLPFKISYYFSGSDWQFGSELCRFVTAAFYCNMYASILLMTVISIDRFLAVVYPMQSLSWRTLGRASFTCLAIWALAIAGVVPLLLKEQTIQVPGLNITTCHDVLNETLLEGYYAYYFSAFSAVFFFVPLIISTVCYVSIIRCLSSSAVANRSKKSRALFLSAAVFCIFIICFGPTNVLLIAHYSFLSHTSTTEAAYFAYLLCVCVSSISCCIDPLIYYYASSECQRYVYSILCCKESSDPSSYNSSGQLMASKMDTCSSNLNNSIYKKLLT


target: T1, human thrombin receptor (PAR1) (human); experiment: panning, G12 library, CHO PAR1

binding | Binder
binds | LQEDLKGMTLQ
binds | LEENLKYRMLD
binds | LQENLKEMMLQ

target: T1, human thrombin receptor (PAR1) (human); experiment: panning, G13 library, CHO PAR1

binding | Binder
binds | LIVKVKQLIWQ
binds | MRAKLNNLMLE

The remaining lines, values behind:

Binder | binding
LQDNLRHLMLQ | binds
LQANRKLGMLQ | binds
LQDNLRHLIQ | binds
LQDKINHLMLQ | binds
LQDNRNQLLF | binds

target: light-activated rhodopsin (bovine) (UniProt P02699); experiment: panning, LacI-displayed Gt library

binding | Binder
binds | ICENLKECGLF [light-activated rhodopsin clone 10 …]
binds | IQGVLKDCGLL [light-activated rhodopsin clone 9 …]

target: T1, human thrombin receptor (PAR1) (human); experiment: panning, Gt library, CHO PAR1

binding | Binder
binds | RRGNGKDCRHF
binds | PRDNTKVRGLF
binds | ICERLNDCGLC
binds | FWGNLQDSGLF
binds | IREFLTDCGLF
binds | IRLDLKDVSLF
